PubChem BioAssay AID1159584 – Peter MacCallum Cancer Centre – 2016
Screen: 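Knock-downs that harm CDH1-null cells more than parental MCF10A cells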 (primary screen). System: human MCF10A breast epithelial cells, parental and CDH1-null. Reagent: siRNA against human genes. Measurement: 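ATP luminescence (CellTiter-Glo) viability per line relative to mean mock wells over all plates, and the ratio of CDH1-null to parental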. Reading the numbers: CDH1-null / parental viability ratio: higher = CDH1-null cells survive relatively better than parental; CDH1-null viability vs mock: higher = more viable CDH1-null cells; parental viability vs mock: higher = more viable parental cells.
Here is one part, drawn at random, of about 18,000 deposited reagents. No sequences are given here. The record does not give: the amount of reagent, the time to read-out.

The opening 3 records, ahead of the listing:
gene	CDH1-null / parental viability ratio	CDH1-null viability vs mock (fraction of mock)	parental viability vs mock (fraction of mock)
CRCT1	0.94	0.88	0.94
TMEM68	0.95	0.74	0.78
ENDOU	1.22	0.94	0.77

The listing, from the first entry:
gene	CDH1-null / parental viability ratio	CDH1-null viability vs mock (fraction of mock)	parental viability vs mock (fraction of mock)
CRCT1	0.94	0.88	0.94
TMEM68	0.95	0.74	0.78
ENDOU	1.22	0.94	0.77
KRTAP4-11	1.42	1.19	0.84
ATP8B3	0.93	0.82	0.88
RPS29	1.46	0.38	0.26
CFAP58	1.03	0.8	0.78
SEC11B	0.96	0.94	0.98
F8A3	0.95	0.4	0.42
ATG16L2	0.96	0.79	0.82
CST9	1.55	0.82	0.53
UBR3	0.86	0.49	0.57
OSBPL8	0.84	0.59	0.7
SPDEF	1.06	1.15	1.08
ARSK	1.19	1	0.84
GIPR	1.27	0.98	0.77
CATSPERB	1.04	0.76	0.73
LHX6	1.15	1.1	0.96
SLC39A9	1.06	0.56	0.53
NFRKB	1.15	0.94	0.82
CFD	0.92	0.86	0.93
TSPAN7	1.01	1	0.99
SLC25A3	1.24	1.14	0.92
ADGRA2	0.72	0.62	0.86
MPPED1	0.86	0.5	0.58
NFE2L1	0.98	0.62	0.63
MASTL	0.87	0.71	0.82
CPNE8	1.11	1.08	0.97
PLEKHB2	1.11	0.98	0.88
WTIP	1.13	0.77	0.68
KCNC3	1.09	0.94	0.86
FANCA	0.83	0.62	0.75
PCDHB3	1.22	0.73	0.6
MALT1	1.02	0.63	0.62
XYLT2	1.31	1.18	0.9
BBS5	0.87	0.61	0.7
DEPDC7	0.8	0.8	1
ARID3B	1.5	0.78	0.52
FAM180A	1.1	0.77	0.7
GFOD2	0.78	0.52	0.67
ICE2	1.28	0.77	0.6
GIT1	0.72	0.49	0.68
MAEA	1.34	0.99	0.74
KBTBD2	0.71	0.62	0.87
ADPRM	1.01	0.98	0.97
GRINA	1.03	0.72	0.7
